Reference: publication PMC11946258, “Self-Assembly, Antimicrobial Properties and Biodegradability of Ester-Functionalized Choline-Based Surface-Active Ionic Liquids” (Molecules, 2025)

Tested on: microorganisms derived from activated sludge
Test: Aerobic biodegradability, CO2 Headspace Test (OECD 310)

`O=C([O-])c1ccccc1.[Na+]` [NaBz, sodium benzoate, reference compound] was tested, and the “Biodegradation (%) 7 Days” value (7 days) was 80%, the “Biodegradation (%) 14 Days” value (14 days) was 91% and the “Biodegradation (%) 21 Days” value (21 days) was 93%. For the same compound, the “Biodegradation (%) 28 Days” value (28 days, 95% confidence limits, four replicates) was 98 ± 5.1%.
